These are yes or no findings as the source states them, for the method shown. In cells and extracts the contact can be indirect. Some entries that bind do so weakly or less than the wild type. For part of these data: Sequences can lack the tags named with a protein.

By UniProt entry, the sequences of proteins in these tests, tags left out. Where a name states a change or a piece, a line headed by the entry shows the natural chain unless it says otherwise.
UniProt Q04206: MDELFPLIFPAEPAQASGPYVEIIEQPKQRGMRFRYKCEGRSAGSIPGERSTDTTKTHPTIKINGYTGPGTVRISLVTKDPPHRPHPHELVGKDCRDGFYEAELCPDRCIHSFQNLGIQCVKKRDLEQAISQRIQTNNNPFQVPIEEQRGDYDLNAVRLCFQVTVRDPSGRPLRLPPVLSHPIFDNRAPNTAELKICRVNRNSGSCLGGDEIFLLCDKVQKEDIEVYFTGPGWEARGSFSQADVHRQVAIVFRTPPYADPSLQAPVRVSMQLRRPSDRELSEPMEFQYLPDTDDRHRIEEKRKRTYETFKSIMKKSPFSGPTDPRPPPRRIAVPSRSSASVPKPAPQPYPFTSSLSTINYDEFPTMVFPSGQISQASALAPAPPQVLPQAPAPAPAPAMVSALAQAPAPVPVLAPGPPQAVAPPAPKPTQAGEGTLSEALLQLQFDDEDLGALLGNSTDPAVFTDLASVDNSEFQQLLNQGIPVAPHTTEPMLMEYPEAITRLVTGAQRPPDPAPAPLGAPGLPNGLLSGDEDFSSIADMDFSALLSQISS
UniProt Q8TAF3: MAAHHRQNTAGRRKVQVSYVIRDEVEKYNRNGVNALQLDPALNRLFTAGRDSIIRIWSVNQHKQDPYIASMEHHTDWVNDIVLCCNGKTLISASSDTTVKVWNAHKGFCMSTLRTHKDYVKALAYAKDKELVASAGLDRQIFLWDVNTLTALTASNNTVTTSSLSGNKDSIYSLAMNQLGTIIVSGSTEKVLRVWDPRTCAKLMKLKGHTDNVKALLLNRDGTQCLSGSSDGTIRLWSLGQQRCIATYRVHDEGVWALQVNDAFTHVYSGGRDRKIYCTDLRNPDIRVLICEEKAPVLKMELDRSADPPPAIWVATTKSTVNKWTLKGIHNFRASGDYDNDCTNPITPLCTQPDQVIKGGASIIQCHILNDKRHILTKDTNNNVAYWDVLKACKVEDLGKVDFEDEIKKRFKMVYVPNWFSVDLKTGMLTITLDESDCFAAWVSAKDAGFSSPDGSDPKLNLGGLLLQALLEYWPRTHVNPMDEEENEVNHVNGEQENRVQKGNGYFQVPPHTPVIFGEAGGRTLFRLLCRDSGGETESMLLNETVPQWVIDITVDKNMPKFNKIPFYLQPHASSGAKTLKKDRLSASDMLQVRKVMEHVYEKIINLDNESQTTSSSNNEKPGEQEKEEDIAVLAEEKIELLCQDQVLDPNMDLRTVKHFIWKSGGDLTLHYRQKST
UniProt Q8BH57: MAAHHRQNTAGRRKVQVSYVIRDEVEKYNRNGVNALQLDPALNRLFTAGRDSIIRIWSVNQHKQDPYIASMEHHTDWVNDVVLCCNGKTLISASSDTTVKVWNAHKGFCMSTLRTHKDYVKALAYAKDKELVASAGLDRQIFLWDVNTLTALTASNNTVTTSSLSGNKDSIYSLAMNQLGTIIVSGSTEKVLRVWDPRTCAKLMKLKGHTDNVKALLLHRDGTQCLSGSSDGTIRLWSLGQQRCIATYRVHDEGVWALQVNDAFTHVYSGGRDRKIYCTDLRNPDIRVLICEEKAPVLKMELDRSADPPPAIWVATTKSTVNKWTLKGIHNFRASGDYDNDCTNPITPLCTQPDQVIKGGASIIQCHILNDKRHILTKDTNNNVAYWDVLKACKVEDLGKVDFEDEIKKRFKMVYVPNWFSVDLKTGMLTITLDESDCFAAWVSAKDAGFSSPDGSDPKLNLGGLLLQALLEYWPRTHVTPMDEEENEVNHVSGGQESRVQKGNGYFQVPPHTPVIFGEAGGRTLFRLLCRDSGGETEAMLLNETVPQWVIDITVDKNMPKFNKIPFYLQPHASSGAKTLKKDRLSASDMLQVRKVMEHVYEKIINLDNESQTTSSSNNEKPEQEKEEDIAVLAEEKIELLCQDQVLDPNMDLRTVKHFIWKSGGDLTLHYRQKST
UniProt Q04207: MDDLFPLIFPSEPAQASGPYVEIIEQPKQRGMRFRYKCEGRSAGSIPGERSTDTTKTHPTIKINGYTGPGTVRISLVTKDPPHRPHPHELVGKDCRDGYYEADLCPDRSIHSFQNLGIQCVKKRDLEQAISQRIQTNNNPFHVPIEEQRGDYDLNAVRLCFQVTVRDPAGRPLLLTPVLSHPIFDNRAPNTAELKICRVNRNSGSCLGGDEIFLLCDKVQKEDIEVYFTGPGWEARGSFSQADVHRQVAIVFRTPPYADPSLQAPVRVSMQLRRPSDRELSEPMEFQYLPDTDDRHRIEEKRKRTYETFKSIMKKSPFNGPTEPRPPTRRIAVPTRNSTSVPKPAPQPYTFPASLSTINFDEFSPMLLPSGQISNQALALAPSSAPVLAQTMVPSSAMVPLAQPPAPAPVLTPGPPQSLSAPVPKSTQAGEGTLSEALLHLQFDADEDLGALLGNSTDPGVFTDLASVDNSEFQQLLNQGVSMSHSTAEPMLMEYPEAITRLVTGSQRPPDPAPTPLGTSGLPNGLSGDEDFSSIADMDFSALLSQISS
UniProt O75317: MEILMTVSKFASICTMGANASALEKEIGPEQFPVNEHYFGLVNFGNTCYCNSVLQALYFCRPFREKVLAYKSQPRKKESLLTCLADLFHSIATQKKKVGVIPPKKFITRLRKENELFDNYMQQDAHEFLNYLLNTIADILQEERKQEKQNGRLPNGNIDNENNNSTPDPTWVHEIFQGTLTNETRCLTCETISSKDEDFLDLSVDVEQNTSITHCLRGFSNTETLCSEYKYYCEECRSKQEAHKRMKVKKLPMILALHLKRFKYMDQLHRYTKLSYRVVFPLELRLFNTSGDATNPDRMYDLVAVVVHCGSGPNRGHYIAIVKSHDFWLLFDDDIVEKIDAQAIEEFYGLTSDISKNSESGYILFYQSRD
UniProt P62068: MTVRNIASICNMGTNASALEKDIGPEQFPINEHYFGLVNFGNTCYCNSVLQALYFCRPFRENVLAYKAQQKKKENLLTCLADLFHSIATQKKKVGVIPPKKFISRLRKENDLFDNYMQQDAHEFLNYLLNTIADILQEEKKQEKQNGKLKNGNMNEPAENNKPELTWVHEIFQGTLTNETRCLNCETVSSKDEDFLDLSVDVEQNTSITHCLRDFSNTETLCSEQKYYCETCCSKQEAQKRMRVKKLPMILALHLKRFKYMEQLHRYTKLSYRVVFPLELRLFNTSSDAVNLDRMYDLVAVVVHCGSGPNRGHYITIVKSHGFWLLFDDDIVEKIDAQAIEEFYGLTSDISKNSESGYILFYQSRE
UniProt Q96P20: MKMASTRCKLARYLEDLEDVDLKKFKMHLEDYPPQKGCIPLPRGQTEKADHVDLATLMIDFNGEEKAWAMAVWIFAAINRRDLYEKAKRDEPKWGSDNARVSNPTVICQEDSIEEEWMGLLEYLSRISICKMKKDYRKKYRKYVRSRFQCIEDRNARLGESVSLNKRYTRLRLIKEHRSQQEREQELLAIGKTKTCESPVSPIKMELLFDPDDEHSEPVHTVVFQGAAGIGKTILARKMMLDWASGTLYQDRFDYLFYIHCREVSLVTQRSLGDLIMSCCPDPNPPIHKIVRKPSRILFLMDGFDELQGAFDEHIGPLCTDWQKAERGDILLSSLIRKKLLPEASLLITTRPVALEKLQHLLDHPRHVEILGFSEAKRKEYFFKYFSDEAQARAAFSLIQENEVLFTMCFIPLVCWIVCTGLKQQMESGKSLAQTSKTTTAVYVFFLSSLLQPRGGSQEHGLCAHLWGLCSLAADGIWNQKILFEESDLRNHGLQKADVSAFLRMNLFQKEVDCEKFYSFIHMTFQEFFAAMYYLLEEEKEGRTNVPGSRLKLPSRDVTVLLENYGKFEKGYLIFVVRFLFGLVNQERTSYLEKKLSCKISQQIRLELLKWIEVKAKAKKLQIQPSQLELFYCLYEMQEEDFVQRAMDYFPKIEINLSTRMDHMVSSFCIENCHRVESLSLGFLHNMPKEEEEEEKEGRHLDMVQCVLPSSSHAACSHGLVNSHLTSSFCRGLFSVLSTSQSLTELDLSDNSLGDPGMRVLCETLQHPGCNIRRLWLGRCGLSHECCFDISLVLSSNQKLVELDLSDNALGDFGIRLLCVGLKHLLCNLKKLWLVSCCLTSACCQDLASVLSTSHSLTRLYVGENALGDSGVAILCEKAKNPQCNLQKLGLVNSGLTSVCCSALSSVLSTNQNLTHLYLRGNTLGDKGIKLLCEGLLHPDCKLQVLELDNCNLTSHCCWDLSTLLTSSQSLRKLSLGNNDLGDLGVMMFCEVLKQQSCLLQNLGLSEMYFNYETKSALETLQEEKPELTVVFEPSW
UniProt Q8R4B8: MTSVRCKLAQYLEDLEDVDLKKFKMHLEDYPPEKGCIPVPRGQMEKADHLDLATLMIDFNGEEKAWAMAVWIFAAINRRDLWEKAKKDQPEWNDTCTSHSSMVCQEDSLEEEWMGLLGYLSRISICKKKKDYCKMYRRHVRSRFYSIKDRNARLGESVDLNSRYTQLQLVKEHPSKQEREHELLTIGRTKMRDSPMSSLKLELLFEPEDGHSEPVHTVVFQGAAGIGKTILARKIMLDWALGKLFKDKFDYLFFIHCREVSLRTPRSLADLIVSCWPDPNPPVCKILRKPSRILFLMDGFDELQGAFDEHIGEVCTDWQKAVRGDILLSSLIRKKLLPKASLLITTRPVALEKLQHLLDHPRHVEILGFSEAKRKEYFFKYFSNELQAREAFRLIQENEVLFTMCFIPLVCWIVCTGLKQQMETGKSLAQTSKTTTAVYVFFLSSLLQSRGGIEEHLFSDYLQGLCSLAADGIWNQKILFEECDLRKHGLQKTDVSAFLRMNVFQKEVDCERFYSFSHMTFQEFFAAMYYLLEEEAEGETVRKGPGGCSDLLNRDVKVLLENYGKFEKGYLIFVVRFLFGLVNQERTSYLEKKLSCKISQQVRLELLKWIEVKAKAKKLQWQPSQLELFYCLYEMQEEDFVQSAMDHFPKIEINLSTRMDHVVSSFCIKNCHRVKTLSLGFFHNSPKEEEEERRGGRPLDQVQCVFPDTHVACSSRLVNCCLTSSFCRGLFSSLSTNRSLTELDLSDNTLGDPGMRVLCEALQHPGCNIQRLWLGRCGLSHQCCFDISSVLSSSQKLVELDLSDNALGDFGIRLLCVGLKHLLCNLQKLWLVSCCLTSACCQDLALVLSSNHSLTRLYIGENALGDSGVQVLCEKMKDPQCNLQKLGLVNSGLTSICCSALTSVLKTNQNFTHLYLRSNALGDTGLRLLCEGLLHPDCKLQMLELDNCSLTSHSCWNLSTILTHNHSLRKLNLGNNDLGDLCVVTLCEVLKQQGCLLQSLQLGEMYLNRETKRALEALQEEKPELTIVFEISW
UniProt Q9D9M2: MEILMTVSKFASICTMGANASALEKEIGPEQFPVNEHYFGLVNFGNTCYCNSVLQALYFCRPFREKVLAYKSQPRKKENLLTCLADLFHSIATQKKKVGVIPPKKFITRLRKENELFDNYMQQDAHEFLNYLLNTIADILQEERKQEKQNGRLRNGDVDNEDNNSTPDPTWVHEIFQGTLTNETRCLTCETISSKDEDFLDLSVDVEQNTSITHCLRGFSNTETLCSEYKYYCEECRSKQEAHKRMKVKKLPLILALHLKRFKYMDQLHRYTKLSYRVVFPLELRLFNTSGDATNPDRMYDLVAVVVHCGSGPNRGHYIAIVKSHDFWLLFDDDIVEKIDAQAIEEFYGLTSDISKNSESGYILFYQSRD
UniProt P62069: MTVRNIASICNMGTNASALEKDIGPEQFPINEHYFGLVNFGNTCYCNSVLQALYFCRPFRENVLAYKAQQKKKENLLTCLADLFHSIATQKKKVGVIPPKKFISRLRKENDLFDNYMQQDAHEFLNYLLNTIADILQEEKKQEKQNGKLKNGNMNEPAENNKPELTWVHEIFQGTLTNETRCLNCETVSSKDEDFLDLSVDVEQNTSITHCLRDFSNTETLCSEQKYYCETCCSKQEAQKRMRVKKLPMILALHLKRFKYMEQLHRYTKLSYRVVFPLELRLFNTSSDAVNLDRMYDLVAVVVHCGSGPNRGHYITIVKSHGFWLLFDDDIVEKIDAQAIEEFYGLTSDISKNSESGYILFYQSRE

The target in one assay is Myc-p65 (UniProt Q04206). Nature of the assay: co-IP; lysates of HEK293T cells transiently transfected with tagged proteins; IP with anti-Myc (p65 as bait) or anti-Flag (USP1 or UAF1 as bait), western blot with anti-Flag or anti-Myc; IP buffer 1.0% Nonidet P 40, 50 mM Tris-HCl pH 7.4, 50 mM EDTA, 150 mM NaCl.
Assay [1] has as its target T1, Flag-USP1 (human (cDNA from THP-1 cells)) (UniProt O94782).
T1 sequence: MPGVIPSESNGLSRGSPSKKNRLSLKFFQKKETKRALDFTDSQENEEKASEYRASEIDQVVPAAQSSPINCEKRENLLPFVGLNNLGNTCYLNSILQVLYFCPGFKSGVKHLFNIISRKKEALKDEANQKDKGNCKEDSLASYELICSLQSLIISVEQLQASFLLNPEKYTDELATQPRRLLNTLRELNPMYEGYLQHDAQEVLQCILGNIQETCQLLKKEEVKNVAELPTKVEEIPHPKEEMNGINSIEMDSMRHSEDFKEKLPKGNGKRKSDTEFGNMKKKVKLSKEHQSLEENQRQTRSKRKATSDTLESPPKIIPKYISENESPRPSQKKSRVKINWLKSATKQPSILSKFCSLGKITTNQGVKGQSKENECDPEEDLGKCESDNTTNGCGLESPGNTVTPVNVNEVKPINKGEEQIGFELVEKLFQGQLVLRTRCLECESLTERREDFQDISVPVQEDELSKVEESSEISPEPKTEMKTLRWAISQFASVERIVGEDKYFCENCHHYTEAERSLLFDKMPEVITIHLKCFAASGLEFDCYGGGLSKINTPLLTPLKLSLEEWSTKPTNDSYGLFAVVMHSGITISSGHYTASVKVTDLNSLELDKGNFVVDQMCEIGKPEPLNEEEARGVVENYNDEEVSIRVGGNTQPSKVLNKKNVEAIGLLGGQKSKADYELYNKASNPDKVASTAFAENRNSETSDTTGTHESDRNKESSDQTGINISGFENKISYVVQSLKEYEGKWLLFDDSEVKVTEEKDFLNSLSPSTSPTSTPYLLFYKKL
Described as above.

Assay [2] deals with Flag-UAF1 (human (cDNA from THP-1 cells)) (UniProt Q8TAF3). The description is as above.
The target of assay [3] is HA-tagged UAF1 (in vitro transcribed and translated) (UniProt Q8TAF3). Put plainly: co-IP; in vitro binding assay: both proteins obtained by in vitro transcription and translation, mixed together, IP with USP1 antibody or HA antibody, immunoblot with NLRP3 antibody. (In general: Immunoblotting shows a protein as a band on a membrane.)
Assay [4] addresses T2, USP1 (from PCMV6-USP1, in vitro transcribed and translated) (UniProt O94782).
T2 sequence: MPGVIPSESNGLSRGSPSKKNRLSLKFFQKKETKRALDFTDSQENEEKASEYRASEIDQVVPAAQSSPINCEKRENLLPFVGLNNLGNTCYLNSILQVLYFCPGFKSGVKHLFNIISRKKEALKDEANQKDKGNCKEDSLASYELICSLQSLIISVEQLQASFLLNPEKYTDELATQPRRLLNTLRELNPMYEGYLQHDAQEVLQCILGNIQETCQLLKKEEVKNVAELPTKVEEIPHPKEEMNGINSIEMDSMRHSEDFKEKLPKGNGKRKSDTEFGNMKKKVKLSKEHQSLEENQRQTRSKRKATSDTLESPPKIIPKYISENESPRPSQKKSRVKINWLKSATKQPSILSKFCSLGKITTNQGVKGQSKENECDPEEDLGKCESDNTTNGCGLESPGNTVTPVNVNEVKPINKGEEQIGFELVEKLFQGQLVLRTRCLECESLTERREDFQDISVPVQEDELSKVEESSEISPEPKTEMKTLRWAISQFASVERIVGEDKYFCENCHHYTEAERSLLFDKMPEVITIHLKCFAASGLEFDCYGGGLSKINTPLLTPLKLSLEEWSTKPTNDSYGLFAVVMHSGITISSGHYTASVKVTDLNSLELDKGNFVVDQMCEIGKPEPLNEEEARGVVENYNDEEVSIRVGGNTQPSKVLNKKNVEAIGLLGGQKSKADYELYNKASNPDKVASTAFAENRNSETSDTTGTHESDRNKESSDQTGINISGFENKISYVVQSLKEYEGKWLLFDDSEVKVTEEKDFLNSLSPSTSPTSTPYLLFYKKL
The description is as above.

Assay [5] deals with T3, Ubiquitin specific peptidase 1 (endogenous, mouse peritoneal macrophages) (mouse (endogenous in peritoneal macrophages)) (UniProt Q8BJQ2).
T3 sequence: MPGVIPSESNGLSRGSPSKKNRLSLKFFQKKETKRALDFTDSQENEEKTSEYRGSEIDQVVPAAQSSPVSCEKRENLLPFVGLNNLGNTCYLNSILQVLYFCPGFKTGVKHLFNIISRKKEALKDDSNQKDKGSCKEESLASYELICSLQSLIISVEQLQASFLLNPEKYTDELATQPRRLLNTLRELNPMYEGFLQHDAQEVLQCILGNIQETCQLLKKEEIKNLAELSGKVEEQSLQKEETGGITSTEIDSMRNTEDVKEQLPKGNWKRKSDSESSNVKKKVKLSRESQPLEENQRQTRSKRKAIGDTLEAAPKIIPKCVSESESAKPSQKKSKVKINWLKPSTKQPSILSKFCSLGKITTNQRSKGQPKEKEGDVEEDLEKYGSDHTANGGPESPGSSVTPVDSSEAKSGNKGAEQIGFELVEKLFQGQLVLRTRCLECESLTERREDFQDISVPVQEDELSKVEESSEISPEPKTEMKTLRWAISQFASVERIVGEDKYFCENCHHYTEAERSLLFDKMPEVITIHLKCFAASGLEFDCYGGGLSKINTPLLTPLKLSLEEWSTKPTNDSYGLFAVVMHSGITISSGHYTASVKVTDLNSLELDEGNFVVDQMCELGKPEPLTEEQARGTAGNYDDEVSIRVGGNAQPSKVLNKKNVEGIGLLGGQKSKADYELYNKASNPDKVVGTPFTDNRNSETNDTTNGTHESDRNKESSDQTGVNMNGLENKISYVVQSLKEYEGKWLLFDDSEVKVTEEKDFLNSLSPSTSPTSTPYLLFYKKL
Nature of the assay: co-IP; endogenous proteins in lysates of mouse peritoneal macrophages, unstimulated or stimulated with LPS for the indicated times; IP with anti-p65, anti-USP1 or anti-UAF1, western blot; IP buffer 1.0% Nonidet P 40, 50 mM Tris-HCl pH 7.4, 50 mM EDTA, 150 mM NaCl.

In assay [6] the target is Ubiquitin specific peptidase 1 (USP1)-associated factor 1 (endogenous, mouse peritoneal macrophages) (mouse (endogenous in peritoneal macrophages)) (UniProt Q8BH57). The description is as above.
Assay [7] concerns the target NF-κB subunit p65 (endogenous, mouse peritoneal macrophages) (mouse (endogenous in peritoneal macrophages)) (UniProt Q04207). The assay is described as above.

In the case of Flag-UAF1 (from UniProt Q8TAF3 1-677), the binding entry in the assay with Myc-p65 is recorded as “binds”. Regarding “Flag-USP12 (from UniProt O75317 1-370) (enzyme)”, the binding entry in the assay with Myc-p65 was “binds”. On the same count and under the same terms, the result for “Flag-USP46 (from UniProt P62068 1-366) (enzyme)” reads “binds”. “Myc-NLRP3 NACHT domain mutant (NACHT) (from UniProt Q96P20 220-536) (domain or fragment)”: the binding result in assay [1] and in assay [2] was “binds” in each case. In the case of “Myc-NLRP3 wild-type (from UniProt Q96P20 1-1036)”, the binding entry in assay [1] and in assay [2] was “binds” throughout.

Take “Myc-tagged NLRP3 (in vitro transcribed and translated) (from UniProt Q96P20 1-1036)”: the binding entry in assay [3] and in assay [4] was “binds” in each case. On to “NOD-like receptor protein 3 (endogenous, mouse peritoneal macrophages) (from UniProt Q8R4B8 1-1033)”, for which the binding entry in assay [5] and in assay [6] was “binds” in each case. For “USP12 (endogenous, mouse peritoneal macrophages) (from UniProt Q9D9M2 1-370) (enzyme)”, the binding result in assay [7] is “binds”. Regarding “USP46 (endogenous, mouse peritoneal macrophages) (from UniProt P62069 1-366) (enzyme)”, the binding result in assay [7] is on record as “binds”. Same read-out and setting: as for “Ubiquitin specific peptidase 1 (USP1)-associated factor 1 (endogenous, mouse peritoneal macrophages) (from UniProt Q8BH57-1 1-676)”, the entry is “binds”.

B1: Ubiquitin specific peptidase 1 (endogenous, mouse peritoneal macrophages) (enzyme, UniProt Q8BJQ2 1-784)
chain: MPGVIPSESNGLSRGSPSKKNRLSLKFFQKKETKRALDFTDSQENEEKTSEYRGSEIDQVVPAAQSSPVSCEKRENLLPFVGLNNLGNTCYLNSILQVLYFCPGFKTGVKHLFNIISRKKEALKDDSNQKDKGSCKEESLASYELICSLQSLIISVEQLQASFLLNPEKYTDELATQPRRLLNTLRELNPMYEGFLQHDAQEVLQCILGNIQETCQLLKKEEIKNLAELSGKVEEQSLQKEETGGITSTEIDSMRNTEDVKEQLPKGNWKRKSDSESSNVKKKVKLSRESQPLEENQRQTRSKRKAIGDTLEAAPKIIPKCVSESESAKPSQKKSKVKINWLKPSTKQPSILSKFCSLGKITTNQRSKGQPKEKEGDVEEDLEKYGSDHTANGGPESPGSSVTPVDSSEAKSGNKGAEQIGFELVEKLFQGQLVLRTRCLECESLTERREDFQDISVPVQEDELSKVEESSEISPEPKTEMKTLRWAISQFASVERIVGEDKYFCENCHHYTEAERSLLFDKMPEVITIHLKCFAASGLEFDCYGGGLSKINTPLLTPLKLSLEEWSTKPTNDSYGLFAVVMHSGITISSGHYTASVKVTDLNSLELDEGNFVVDQMCELGKPEPLTEEQARGTAGNYDDEVSIRVGGNAQPSKVLNKKNVEGIGLLGGQKSKADYELYNKASNPDKVVGTPFTDNRNSETNDTTNGTHESDRNKESSDQTGVNMNGLENKISYVVQSLKEYEGKWLLFDDSEVKVTEEKDFLNSLSPSTSPTSTPYLLFYKKL
As to B1, the binding entry in assay [7] is “no binding”.

(Values after PMC7695691.)
